The text below walks through data of PubChem BioAssay AID1487 (National Center for Advancing Translational Sciences (NCATS), 2009).

Molecules are shown by their SMILES. The list shows a part of the results. These are further read-outs of the screen, such as a control signal, another cell line or another target. No call is given for them. Compounds called inactive in the main read-out are mostly missing here. The note in brackets gives the kind of curve behind each potency; many fits are weak.

This test can be described thus: qHTS Assay for Modulators of Lamin A Splicing. The conditions noted are these: HeLa LMNA splicing GFP/RFP minigene ratio, 48 h. The method in brief:
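S3 HeLa stable clones carrying a lamin A-EGFP splicing minigene plus DsRed2 were seeded at 600 cells/well in Opti-MEM with 2% FBS, pin-dosed and incubated 48 h at 37°C. Acumen cytometry (488 nm) gave the GFP/RFP total-intensity ratio.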
For orientation: In qHTS, concentration-response curves come from the screen itself.

Setting [1] is: measured here: RFP viability control channel.
The mark [2] stands for this setting: measured here: GFP splicing reporter channel.

Broadly, the AC50 is the concentration at which the activity in the assay is half-maximal. For `Cn1cnc(S(=O)(=O)N2CCC(C(=O)N3CCN(c4ccccc4F)CC3)CC2)c1`, the AC50 under setting [1] was 0.00631 µM [rising, full curve, poor fit]. For `COc1ccc(-c2nnc3c4ccccc4c(C)nn23)cc1`, the AC50 by setting is: under setting [2], 15.8 µM [rising, single point]; under setting [1], 11.2 µM [rising, single point]. As to `c1ccc2c(c1)nnn1c3ccccc3nc21`, the AC50 is 35.5 µM [rising, single point] under setting [2] and 35.5 µM [rising, single point] under setting [1]. As to `COCCNc1nc(-n2nc(C)cc2C)nc2sc3c(c12)CCCC3`, the AC50 under setting [1] was 5.62 µM [rising, partial curve]. With `O=c1[nH]snc1N1CCOCC1`, the AC50 by setting is: under setting [2], 2.24 µM [falling, full curve, poor fit]; under setting [1], 0.0891 µM [falling, full curve, poor fit]. As to `CCOC(=O)c1c(NC(=O)C2COc3ccccc3O2)sc2c1CCN(Cc1ccccc1)C2` (stereo not given), under setting [1], the AC50 is 31.6 µM [rising, single point]. On the same count and under the same terms, under `S=C(NCc1ccccc1)N1CCN(Cc2ccc3c(c2)OCO3)CC1` stands 1.26 µM [falling, partial curve]. Turning to `CCOC(=O)C1C(=O)C=C(c2ccc([N+](=O)[O-])cc2)CC1c1ccccc1` (stereo not given), under setting [1], the AC50 is 12.6 µM [rising, single point].

In the case of `N#CC1=C(N)C(C#N)(C#N)[C@H](c2cccnc2)[C@H]2CN(C(=O)OCc3ccccc3)CC=C12`, the AC50 runs as follows: under setting [2], 12.6 µM [rising, single point]; under setting [1], 35.5 µM [rising, single point]. `CCCCOc1ccc(N(CC(=O)NC(C)(C)CC)C(=O)CCC(=O)Nc2ccccn2)cc1`: the AC50 under setting [1] was 3.55 µM [falling, full curve, poor fit]. For `COc1ccc2cc(CN(CC3CCCO3)C(=S)Nc3ccccc3)c(=O)[nH]c2c1` (stereo not given), the AC50 runs as follows: under setting [2], 1.58 µM [falling, full curve]; under setting [1], 1.26 µM [falling, full curve, poor fit]. Consider `CC(=O)c1ccc(N2C(=O)N(CC(=O)c3ccc(C)cc3)c3ccccc3S2(=O)=O)cc1`, for which the AC50 runs as follows: under setting [2], 2.82 µM [rising, single point]; under setting [1], 3.98 µM [rising, full curve]. As to `CS(=O)(=O)c1ccccc1C(=O)N1CCN(Cc2ccccc2)CC1`, the AC50 under setting [1] is 0.0794 µM [rising, full curve].

On to `C=CCn1c(SCC(=O)c2ccc(Cl)cc2)nnc1-c1ccc2c(c1)OCO2`, for which the AC50 runs as follows: under setting [2], 31.6 µM [rising, single point]; under setting [1], 31.6 µM [rising, single point]. For `COc1ccc(NC(=O)C(Cl)=C(Cl)Cl)cn1`, under setting [1], the AC50 was 35.5 µM [falling, single point].

For `O=C1Cc2ccccc2Sc2ccc(O)cc21`, the AC50 is, setting by setting: under setting [2], 14.1 µM [rising, single point]; under setting [1], 31.6 µM [rising, single point].

Take `CC(=O)Nc1ccc(Oc2cc(C#N)c(C#N)cc2N2CCCCCC2)cc1`: under setting [1], the AC50 is 11.2 µM [rising, partial curve].

In the case of `Cn1c(=O)c2c(nc(CN3CCN(c4ccccc4)CC3)n2Cc2ccccc2F)n(C)c1=O`, under setting [2], the AC50 was 7.08 µM [rising, full curve, poor fit]. On to `O=[N+]([O-])c1cccc(/C=N/Nc2nc(N3CCOCC3)nc(N3CCOCC3)n2)c1`, for which the AC50 was 22.4 µM [rising, single point] under setting [2] and 35.5 µM [rising, single point] under setting [1].

Regarding `Cc1ccc(CC(=O)Nc2ccc(OC(F)F)c(Cl)c2)cc1C`, the AC50 runs as follows: under setting [2], 11.2 µM [rising, single point]; under setting [1], 20 µM [rising, single point]. For the compound `Cc1ccc[n+](-c2nc3ccccc3nc2C(=C=[N-])C#N)c1`, the concentration at half-maximal activity (AC50) under setting [1] was 12.6 µM [rising, single point]. For the compound `Oc1ccc(NC(=S)N=Nc2c(O)[nH]c3ccccc23)cc1`, the AC50 reads like this: under setting [2], 1.41 µM [falling, partial curve]; under setting [1], 2.24 µM [falling, partial curve]. On to `Cc1cccc(N2CCc3c2nc2ccc(Br)cc2c3N)c1`, for which the AC50 runs as follows: under setting [2], 3.55 µM [rising, partial curve, poor fit]; under setting [1], 25.1 µM [rising, partial curve]. With `O=C(Nc1c(C(=O)N2CCN(c3ccccc3)CC2)oc2ccccc12)c1ccco1`, the AC50 under setting [1] was 15.8 µM [rising, single point].

In the case of `c1ccc2c(N3CCOCC3)nc(-c3ccncc3)nc2c1`, the AC50 under setting [1] is 12.6 µM [rising, single point]. Still for that read-out and setting: with `CSc1nc(-c2ccccc2)nc(NC(=O)c2ccccc2)c1C(C)=O` the figure was 3.55 µM [falling, full curve]. Turning to `C=C(Nc1ccc(OCC)cc1)Nc1ccc(OCC)cc1`, the AC50 under setting [2] was 0.000794 µM [falling, full curve, poor fit]. Take `CCc1ccccc1N(C1=NCCCS1)S(=O)(=O)c1ccc(C(C)(C)C)cc1`: the AC50 reads like this: under setting [2], 11.2 µM [rising, single point]; under setting [1], 12.6 µM [rising, partial curve]. Turning to `Cc1ccc2c(c1)N(Cc1cccc(Cl)c1)C(=O)c1cccnc1O2`, the half-maximal activity concentration (AC50) under setting [2] was 15.8 µM [rising, partial curve] and the AC50 under setting [1] is 14.1 µM [rising, partial curve]. Consider `CC(C)C(=O)NCC(c1ccc2c(c1)OCO2)N1CCN(c2ccccc2)CC1` (stereo not given), for which, under setting [2], the AC50 is 39.8 µM [falling, partial curve, poor fit].

With `O=C(CCC1CCCCC1)NNC(=O)c1cnccn1`, the AC50 under setting [1] was 5.01 µM [rising, partial curve, poor fit]. For the compound `Cc1ccc(CCNC(=O)CCS(=O)(=O)c2cc3c(cc2C)NC(=O)CO3)cc1`, under setting [2], the AC50 was 35.5 µM [falling, partial curve, poor fit]. The same measure, in the same setting: under `Cc1nc2ncnn2c(C)c1CCC(=O)N1CCc2ccccc2C1` stands 3.55 µM [rising, partial curve, poor fit]. On to `O=C(Nc1nccs1)c1ccc(Br)c(S(=O)(=O)N2CCOCC2)c1`, for which the AC50 under setting [1] was 28.2 µM [rising, single point]. Regarding `Nc1nc(CSC(=S)N2CCOCC2)nc(Nc2ccc(F)cc2)n1`, the AC50 is, setting by setting: under setting [2], 0.112 µM [rising, full curve]; under setting [1], 0.0794 µM [rising, full curve, poor fit].
